The values below come from publication PMC6320938 (Molecules, 2018).

Series [1] is described as follows: Short-term stability in rat plasma at room temperature. Particulars: for RE: room temperature stability; for 0 h Measured C / 4 h Measured C / 6 h Measured C: room temperature. It is filed as in vitro ADME. The method, then:
The stabilities of atractylenolides I, II, and III, and atractyloside A in rat plasma were evaluated at three different QC concentrations using six replicates under two conditions, including at 25 °C for 6 h, and three freeze and thaw cycles. Unextracted QC samples of the four compounds at low, medium, and high concentrations were kept at ambient temperature (25 °C) for 6 h to determine the short-term stability of the compounds in rat plasma. The samples were processed and analyzed, and then the concentrations were compared with the nominal values of the QC samples. The stabilities of the plasma samples after three freeze and thaw cycles were determined. In each cycle, the QC samples were stored at −20 °C for 24 h and thawed unassisted at room temperature. When completely thawed, the samples were refrozen within 24 h. The cycle was repeated three times and the samples were analyzed after the third cycle. Stability was assessed by comparing the mean concentration of the stored QC samples with the mean concentration of freshly prepared QC samples.

Series [2] can be described thus: Freeze-thaw stability in rat plasma. It is filed as in vitro ADME. Particulars: for One Time Measured C / Two Time Measured C / Zero Time Measured C: freeze-thaw (−20 °C / room temperature); for RE: freeze-thaw stability. The method, then: […] Unextracted QC samples of the four compounds at low, medium, and high concentrations were kept at ambient temperature (25 °C) for 6 h to determine the short-term stability of the compounds in rat plasma. The samples were processed and analyzed, and then the concentrations were compared with the nominal values of the QC samples. […] In each cycle, the QC samples were stored at −20 °C for 24 h and thawed unassisted at room temperature. When completely thawed, the samples were refrozen within 24 h. […] Stability was assessed by comparing the mean concentration of the stored QC samples with the mean concentration of freshly prepared QC samples.

Setting [3] is: high QC: added 140 (atractylenolide I), 200 (II, III), 172 (atractyloside A) ng/mL.
Where [4] appears, read: low QC: added 5.6 (atractylenolide I), 8 (II, III), 6.88 (atractyloside A) ng/mL.
The mark [5] stands for this setting: medium QC: added 28 (atractylenolide I), 40 (II, III), 17.2 (atractyloside A) ng/mL.

Consider `C=C1CCC[C@]2(C)C=C3OC(=O)C(C)=C3C[C@@H]12` [Atractylenolide I], for which, in series [1] (setting [3]), the RE is 0.13%, the “0 h Measured C” value is recorded as 140.49 ng/mL, the “4 h Measured C” value is given as 140.45 ng/mL and the “6 h Measured C” value was found to be 139.61 ng/mL. Also, in series [1] (setting [4]), the RE is recorded as −1.37%, the “0 h Measured C” value came out at 5.56 ng/mL, the “4 h Measured C” value is 5.51 ng/mL and the “6 h Measured C” value came out at 5.50 ng/mL. Moreover, in series [1] (setting [5]), the RE is listed as 0.98%, the “0 h Measured C” value was 28.52 ng/mL, the “4 h Measured C” value is 28.43 ng/mL and the “6 h Measured C” value is listed as 27.87 ng/mL. In addition, in series [2] (setting [3]), the “One Time Measured C” value is 140.01 ng/mL, the “Two Time Measured C” value amounted to 140.22 ng/mL, the “Zero Time Measured C” value is given as 141.30 ng/mL and the RE turned out to be 0.36%. For the same compound, in series [2] (setting [4]), the “One Time Measured C” value came to 5.04 ng/mL, the “Two Time Measured C” value came to 5.02 ng/mL, the “Zero Time Measured C” value is 5.95 ng/mL and the RE was −4.70%. Besides, in series [2] (setting [5]), the “One Time Measured C” value turned out to be 28.50 ng/mL, the “Two Time Measured C” value amounted to 28.01 ng/mL, the “Zero Time Measured C” value worked out at 28.42 ng/mL and the RE was found to be 1.11%.
